The source of these data is patent publication US20210371524A1 (VOR BIOPHARMA, published 2021).

Experiment [1] concerns the target cynomolgus CD45 on cyno PBMC (cynomolgus). Briefly: flow cytometry, 24 h PBMC binding.
The target in experiment [2] is cynomolgus CD45 RABC (cynomolgus). Kind of experiment: statement in the epitope mapping example.
For experiment [3] the target is unchanged. Briefly: Octet binding experiments.
For another experiment, the target named is human CD45RO (human). Kind of experiment: Octet binding experiments.

Positions count from the first letter of the chain named. Results are given in words; binding and its absence hold for the method and conditions named. Binding can be weak; no strength is given.

B1: AbA chimera (chimeric Antibody A, human IgG1) (antibody, V domains shown)
VH: EVQLVESGGDRVQPGRSLTLSCVTSGFTFNNYWMTWIRQVPGKGLEWVASISSSGGSIYYPDSVKGRFTISRDNAKNTLYLQMNSLRSEDTATYYCARDERWAGAMDAWGQGTSVTVSS
VL: DIQMTQSPPVLSASVGDRVTLSCKASQNINKNLDWYQQKHGEAPKLLIYETNNLQTGIPSRFSGSGSGTDYTLTISSLQPEDVATYYCYQHNSRFTFGSGTKLEIK
notes: also called chimeric AbA
On to B1, for which the binding result in experiment [1] and in experiment [2] was “binds” each time.

B2: AbA (rat anti-human CD45 monoclonal clone, before chimerisation) (antibody, V domains shown)
VH: B1 VH
VL: B1 VL
On to B2, for which the binding result in experiment [3] is reported as “binds”.

B3: AbB (rat anti-human CD45 monoclonal clone, before chimerisation) (antibody, V domains shown)
VH: EVQLVESGGDLVQPGRSLKLSCIASGFTFTNFWMTWIRQVSGKGLEWVASISSSGGSIYYPDSVKDRFTISRDNAKNTLYLQMNSLRSEDTATYYCVKLHYYSGGGDAWGQGTSVTVSS
VL: DIQMTQSPSFLSASVGDRVTINCKASQNINKYLDWYQQKHGEAPKLLIHYTNNLHTGIPSRFSGSGSGTDYTLTISSLQPEDVATYFCLQHSSRWTFGGGTKLELK
On to B3, for which the binding result (in experiment [3]; in the experiment with human CD45RO (human)) was “binds” throughout.

B4: AbC chimera (chimeric Antibody C, human IgG1) (antibody, V domains shown)
VH: B3 VH with I23V, T30N, F32Y, S41P, Y80F, V97A, K98R, H100Y
VL: B3 VL with N22I, N28D, H40L, H49Y, Y50N, S92I
notes: also called chimeric AbC
Regarding B4, the binding entry in experiment [1] was “binds”.

B5: AbC (rat anti-human CD45 monoclonal clone, before chimerisation) (antibody, V domains shown)
VH: B3 VH with I23V, T30N, F32Y, S41P, Y80F, V97A, K98R, H100Y
VL: B3 VL with N22I, N28D, H40L, H49Y, Y50N, S92I
With B5, the binding result (in experiment [3]; with human CD45RO (human)) was “binds” in each case.

B6: AbB chimera (chimeric Antibody B, human IgG1) (antibody, V domains shown)
VH: B3 VH
VL: B3 VL
notes: also called chimeric AbB
In the case of B6, in experiment [1], the binding result was “binds”.
